# In US20260167673A1, “NOVEL POLYPEPTIDE, POLYPEPTIDE DERIVATIVE AND USE THEREOF” (NANJING ANJI BIOTECHNOLOGY CO., LTD., priority 2023, published 2026):
# At least one peptide structure holds a part that was inferred or is arguable (an end, a ring closure or a residue). Some entries repeat one wording, which the source may state once for all of them. Where no end group is shown, it is not given here.
# How the values were obtained:
# Assay type in all cases: cell-based
# [1] = system: human lymphoma cells Raji; experiment: CCK8 proliferation inhibition, Raji; details: 48 h
# Procedure: (§1) Incubation was continued for 4 h in a cell incubator, an absorbance was measured at 450 nm, and a proliferation inhibition was calculated. Data was presented as mean±SD, and GraphPad Prism 5.0 statistical software was used. A t-test was used for comparison between two groups, while One-way Anova (Dunnett) was used for comparison among a plurality of groups.
# [2] = system: human osteosarcoma cells MG63; experiment: CCK8 proliferation inhibition, MG63; details: 48 h
# Procedure: as §1
# [3] = system: human esophageal cancer cells Eca-109; experiment: CCK8 proliferation inhibition, Eca-109; details: 48 h
# Procedure: as §1
# [4] = system: human non-small cell lung cancer cells A549; experiment: CCK8 proliferation inhibition, A549; details: 48 h
# Procedure: as §1
# [5] = system: human ovarian clear cell carcinoma cells ES-2; experiment: CCK8 proliferation inhibition, ES-2; details: 48 h
# Procedure: as §1
# [6] = system: human cervical cancer epithelial cells CaSki; experiment: CCK8 proliferation inhibition, CaSki; details: 48 h
# Procedure: as §1
# [7] = system: human small intestine cancer cells HIC; experiment: CCK8 proliferation inhibition, HIC; details: 48 h
# Procedure: as §1
# [8] = system: human pancreatic cancer cells PANC-1; experiment: CCK8 proliferation inhibition, PANC-1; details: 48 h
# Procedure: as §1
# [9] = system: human malignant melanoma cells SK-mel-2; experiment: CCK8 proliferation inhibition, SK-mel-2; details: 48 h
# Procedure: as §1
# [10] = system: human prostate cancer cells 22RV1; experiment: CCK8 proliferation inhibition, 22RV1; details: 48 h
# Procedure: as §1
# [11] = system: human laryngeal epidermoid carcinoma cells HEp2; experiment: CCK8 proliferation inhibition, HEp2; details: 48 h
# Procedure: as §1
# [12] = system: human promyelocytic leukemia cells HL60; experiment: CCK8 proliferation inhibition, HL60; details: 48 h
# Procedure: as §1
# [13] = system: human cholangiocarcinoma cells QBC939; experiment: CCK8 proliferation inhibition, QBC939; details: 48 h
# Procedure: as §1
# [14] = system: human liver cancer cells HepG2; experiment: CCK8 proliferation inhibition, HepG2; details: 48 h
# Procedure: as §1
# [15] = system: human tongue squamous cell carcinoma cells CAL27; experiment: CCK8 proliferation inhibition, CAL27 (Example 8); details: CAL27, 100 μM, 48 h, FIG. 11
# [16] = system: human oral epidermoid carcinoma cells KB; experiment: CCK8 proliferation inhibition, KB; details: 48 h
# Procedure: as §1
# [17] = system: human endometrial cancer cells RL-952; experiment: CCK8 proliferation inhibition, RL-952; details: 48 h
# Procedure: as §1
# [18] = system: human ileocecal cancer cells HCT-8; experiment: CCK8 proliferation inhibition, HCT-8; details: 48 h
# Procedure: as §1
# [19] = system: human nasopharyngeal carcinoma cells CNE-2Z; experiment: CCK8 proliferation inhibition, CNE-2Z; details: 48 h
# Procedure: as §1
sequence,measurement,setting,value
SVEAKMQSTSCSVRKSSTVTAWPAVVLLLSWGQRRGG [HMMW15-51],Inhibition (%),[1]; 50 μM,70.013 ± 2.862 %
same,OD,[1]; 50 μM,0.380 ± 0.036
same,Inhibition (%),[1]; 75 μM,81.340 ± 1.546 %
same,OD,[1]; 75 μM,0.237 ± 0.020
same,Inhibition (%),[1]; 100 μM,85.099 ± 1.317 %
same,OD,[1]; 100 μM,0.189 ± 0.017
same,Inhibition (%),"[2]; MG63, 50 μM",70.603 ± 2.845 %
same,OD,"[2]; MG63, 50 μM",0.270 ± 0.026
same,Inhibition (%),"[2]; MG63, 75 μM",78.161 ± 2.520 %
same,OD,"[2]; MG63, 75 μM",0.200 ± 0.023
same,Inhibition (%),"[2]; MG63, 100 μM",86.228 ± 2.728 %
same,OD,"[2]; MG63, 100 μM",0.126 ± 0.025
same,Inhibition (%),"[3]; Eca-109, 50 μM",82.256 ± 3.531 %
same,OD,"[3]; Eca-109, 50 μM",0.168 ± 0.034
same,Inhibition (%),"[3]; Eca-109, 75 μM",88.510 ± 2.588 %
same,OD,"[3]; Eca-109, 75 μM",0.109 ± 0.025
same,Inhibition (%),"[3]; Eca-109, 100 μM",92.024 ± 1.793 %
same,OD,"[3]; Eca-109, 100 μM",0.076 ± 0.017
same,Inhibition (%),"[4]; A549, 50 μM",56.534 ± 0.278 %
same,OD,"[4]; A549, 50 μM",0.469 ± 0.003
same,Inhibition (%),"[4]; A549, 75 μM",67.161 ± 3.844 %
same,OD,"[4]; A549, 75 μM",0.354 ± 0.041
same,Inhibition (%),"[4]; A549, 100 μM",78.808 ± 3.770 %
same,OD,"[4]; A549, 100 μM",0.229 ± 0.041
same,Inhibition (%),"[5]; ES-2, 50 μM",57.508 ± 4.384 %
same,OD,"[5]; ES-2, 50 μM",0.410 ± 0.042
same,Inhibition (%),"[5]; ES-2, 75 μM",72.006 ± 2.904 %
same,OD,"[5]; ES-2, 75 μM",0.270 ± 0.028
same,Inhibition (%),"[5]; ES-2, 100 μM",81.049 ± 1.298 %
same,OD,"[5]; ES-2, 100 μM",0.183 ± 0.013
same,Inhibition (%),[6]; 50 μM,59.001 ± 2.408 %
same,OD,[6]; 50 μM,0.402 ± 0.024
same,Inhibition (%),[6]; 75 μM,69.226 ± 3.007 %
same,OD,[6]; 75 μM,0.302 ± 0.030
same,Inhibition (%),[6]; 100 μM,76.800 ± 3.597 %
same,OD,[6]; 100 μM,0.228 ± 0.035
same,Inhibition (%),[7]; 50 μM,62.332 ± 3.021 %
same,OD,[7]; 50 μM,0.383 ± 0.031
same,Inhibition (%),[7]; 75 μM,71.209 ± 2.133 %
same,OD,[7]; 75 μM,0.293 ± 0.022
same,Inhibition (%),[7]; 100 μM,78.251 ± 3.911 %
same,OD,[7]; 100 μM,0.221 ± 0.040
same,Inhibition (%),"[8]; PANC-1, 50 μM",63.672 ± 5.525 %
same,OD,"[8]; PANC-1, 50 μM",0.310 ± 0.047
same,Inhibition (%),"[8]; PANC-1, 75 μM",78.398 ± 2.704 %
same,OD,"[8]; PANC-1, 75 μM",0.184 ± 0.023
same,Inhibition (%),"[8]; PANC-1, 100 μM",88.906 ± 1.493 %
same,OD,"[8]; PANC-1, 100 μM",0.095 ± 0.013
same,Inhibition (%),"[9]; SK-mel-2, 50 μM",73.136 ± 1.614 %
same,OD,"[9]; SK-mel-2, 50 μM",0.233 ± 0.014
same,Inhibition (%),"[9]; SK-mel-2, 75 μM",79.977 ± 2.225 %
same,OD,"[9]; SK-mel-2, 75 μM",0.174 ± 0.019
same,Inhibition (%),"[9]; SK-mel-2, 100 μM",84.704 ± 2.846 %
same,OD,"[9]; SK-mel-2, 100 μM",0.133 ± 0.025
same,Inhibition (%),"[10]; 22RV1, 50 μM",61.794 ± 3.210 %
same,OD,"[10]; 22RV1, 50 μM",0.426 ± 0.036
same,Inhibition (%),"[10]; 22RV1, 75 μM",72.646 ± 3.906 %
same,OD,"[10]; 22RV1, 75 μM",0.305 ± 0.044
same,Inhibition (%),"[10]; 22RV1, 100 μM",82.720 ± 3.730 %
same,OD,"[10]; 22RV1, 100 μM",0.193 ± 0.042
same,Inhibition (%),"[11]; HEp2, 50 μM",76.029 ± 2.728 %
same,OD,"[11]; HEp2, 50 μM",0.210 ± 0.024
same,Inhibition (%),"[11]; HEp2, 75 μM",80.716 ± 3.030 %
same,OD,"[11]; HEp2, 75 μM",0.169 ± 0.027
same,Inhibition (%),"[11]; HEp2, 100 μM",85.518 ± 0.744 %
same,OD,"[11]; HEp2, 100 μM",0.127 ± 0.007
same,Inhibition (%),"[12]; HL60, 50 μM",54.286 ± 0.696 %
same,OD,"[12]; HL60, 50 μM",0.501 ± 0.008
same,Inhibition (%),"[12]; HL60, 75 μM",61.064 ± 2.269 %
same,OD,"[12]; HL60, 75 μM",0.427 ± 0.025
same,Inhibition (%),"[12]; HL60, 100 μM",71.733 ± 3.732 %
same,OD,"[12]; HL60, 100 μM",0.310 ± 0.041
same,Inhibition (%),"[13]; QBC939, 50 μM",59.529 ± 4.305 %
same,OD,"[13]; QBC939, 50 μM",0.344 ± 0.037
same,Inhibition (%),"[13]; QBC939, 75 μM",70.196 ± 4.847 %
same,OD,"[13]; QBC939, 75 μM",0.253 ± 0.041
same,Inhibition (%),"[13]; QBC939, 100 μM",81.608 ± 4.366 %
same,OD,"[13]; QBC939, 100 μM",0.156 ± 0.037
same,Inhibition (%),"[14]; HepG2, 50 μM",70.976 ± 4.848 %
same,OD,"[14]; HepG2, 50 μM",0.311 ± 0.052
same,Inhibition (%),"[14]; HepG2, 75 μM",77.564 ± 1.730 %
same,OD,"[14]; HepG2, 75 μM",0.241 ± 0.019
same,Inhibition (%),"[14]; HepG2, 100 μM",85.674 ± 2.069 %
same,OD,"[14]; HepG2, 100 μM",0.154 ± 0.022
same,"inhibitory effects on proliferation, comparison among the three peptides",[15],no significant difference
same,Inhibition (%),[16]; 50 μM,78.383 ± 1.148 %
same,OD,[16]; 50 μM,0.218 ± 0.012
same,Inhibition (%),[16]; 75 μM,83.432 ± 0.508 %
same,OD,[16]; 75 μM,0.167 ± 0.005
same,Inhibition (%),[16]; 100 μM,87.888 ± 2.575 %
same,OD,[16]; 100 μM,0.122 ± 0.026
same,Inhibition (%),"[17]; RL-952, 50 μM",58.776 ± 5.167 %
same,OD,"[17]; RL-952, 50 μM",0.355 ± 0.044
same,Inhibition (%),"[17]; RL-952, 75 μM",62.379 ± 2.505 %
same,OD,"[17]; RL-952, 75 μM",0.324 ± 0.022
same,Inhibition (%),"[17]; RL-952, 100 μM",77.916 ± 4.415 %
same,OD,"[17]; RL-952, 100 μM",0.190 ± 0.038
same,Inhibition (%),"[18]; HCT-8, 50 μM",52.590 ± 6.777 %
same,OD,"[18]; HCT-8, 50 μM",0.445 ± 0.064
same,Inhibition (%),"[18]; HCT-8, 75 μM",68.346 ± 7.028 %
same,OD,"[18]; HCT-8, 75 μM",0.297 ± 0.066
same,Inhibition (%),"[18]; HCT-8, 100 μM",78.211 ± 4.966 %
same,OD,"[18]; HCT-8, 100 μM",0.205 ± 0.047
same,Inhibition (%),[19]; 50 μM,74.697 ± 4.553 %
same,OD,[19]; 50 μM,0.244 ± 0.044
same,Inhibition (%),[19]; 75 μM,84.043 ± 1.806 %
same,OD,[19]; 75 μM,0.154 ± 0.017
same,Inhibition (%),[19]; 100 μM,88.404 ± 1.252 %
same,OD,[19]; 100 μM,0.112 ± 0.012
